# Values from PubChem BioAssay AID1259308 (NCATS, 2017)
# Assay: 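Genes whose loss raises luciferase production in HEK293 cells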 (primary screen)
# Cell system: human HEK293 embryonic kidney cells stably expressing firefly luciferase (HEK-CMV-Luc2-Hygro)
# Knock-down reagent: single siRNA against human genes, 0.8 pmol siRNA per well
# Timing: 72 h
# Measurement: 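Reporter luminescence and viable-cell signal on separate replicate plates, given as percent of non-targeting control and median/MAD z-scores, plus per-cell luciferase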
# Reading the numbers: total luciferase, z-score and total luciferase, % of control: higher = more reporter protein produced
# Active means: 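Active when the median/MAD z-score for overall luciferase is greater than 3; a gene was taken forward for validation with new siRNAs if at least two of its three siRNAs passed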
# Calls: active = raised luciferase; inactive = no rise
# The whole screen tested about 59,000 reagents; this is a part drawn at random. About 1,510 of all reagents (2.6%) count as active. 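Calls use total luciferase alone and ignore viability, so some active siRNAs may act by altering cell number.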 Unmarked entries are inactive. The numbers tell different reagents against one gene apart. Not all columns of the deposit are shown. No sequences are given here.
target gene,reagent,"total luciferase, z-score","total luciferase, % of control"
IFNAR2,1,-1.76,46.9
IFNAR2,2,-0.315,75.6
IFNAR2,3,-0.926,63.5
TBC1D10B,1,0.00683,82
TBC1D10B,2,0.247,86.8
TBC1D10B,3,-1.35,55.1
UQCR10,1,-1.73,47.5
UQCR10,2,-0.0869,80.2
UQCR10,3,0.717,96.1
PEG3,1,0.365,89.1
PEG3,2,-0.805,65.9
PEG3,3,0.448,90.8
BRD7,1,-1.65,49.1
BRD7,2,0.252,86.9
BRD7,3,-0.0239,81.4
ESD,1,2.06,123
ESD,2,0.511,92
ESD,3,1.38,109
L2HGDH,1,-1.1,60
L2HGDH,2,1.86,119
L2HGDH,3,-0.648,69
CDRT4,1,1.03,102
CDRT4,2,1.11,104
CDRT4,3,-0.403,73.9
TSHR,1,0.4,89.8
TSHR,2,1.16,105
TSHR,3,-0.66,68.8
SMCHD1,1,1.27,107
SMCHD1,2,-0.0678,80.5
SMCHD1,3,1.04,103
FNBP4,1,1.83,118
FNBP4,2,0.237,86.6
FNBP4,3,0.0823,83.5
IKBKB,1,-0.127,79.4
IKBKB,2,1.13,104
IKBKB,3,0.52,92.2
SERPINA13P,1,2.02,122
SERPINA13P,2,-0.725,67.5
SERPINA13P,3,-2.69,28.5
ARIH1,1,0.221,86.3
ARIH1,2,-0.142,79.1
ARIH1,3,0.134,84.6
LOXL2,1,0.0746,83.4
LOXL2,2,-0.901,64
LOXL2,3,1.08,103
PSME2,1,0.471,91.2
PSME2,2,1.35,109
PSME2,3,-0.214,77.6
SRY,1,-0.029,81.3
SRY,2,4.18 (active),165
SRY,3,-0.86,64.8
LEAP2,1,-1.55,51.1
LEAP2,2,-1.19,58.3
LEAP2,3,1.66,115
MYPOP,1,0.229,86.4
MYPOP,2,-0.176,78.4
MYPOP,3,-1.43,53.4
RGL3,1,0.385,89.6
RGL3,2,0.78,97.4
RGL3,3,1.23,106
BAZ2B,1,-0.957,62.9
BAZ2B,2,0.094,83.8
BAZ2B,3,-0.157,78.8
TCEAL7,1,1.32,108
TCEAL7,2,-0.164,78.6
TCEAL7,3,2.02,122
PATE1,1,-1.2,58.1
PATE1,2,-3.2,18.3
PATE1,3,-0.742,67.1
PNLIPRP2,1,-0.917,63.7
PNLIPRP2,2,1.95,121
PNLIPRP2,3,-2.12,39.7
SLC6A15,1,-1.65,49
SLC6A15,2,0.172,85.3
SLC6A15,3,-0.231,77.3
